# In the supplement of paper PMC11546906:
# Structures can show the parent of a compound that is named as a salt. This is one part of the list. Single values are uncertain here, since repeats match poorly.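 Screen of FDA-approved drugs, each combined with colistin at one-eighth of its MIC, against a multidrug-resistant mcr-1-positive clinical E. coli isolate; growth read as OD600 after 24 h. Bacteria without drug were the growth control and plain broth the blank. A combination counted as active when OD600 fell below 0.2.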
# System: Escherichia coli 42 (mcr-1-positive clinical isolate)
# Experiment: OD600 after 24 h growth with compound plus colistin (absorbance units (OD600)); higher = more bacterial growth (less inhibition)
# Settings: first compound 25 µM; colistin concentration 0.5 ug/mL; incubation time 24 h; 37 °C
row,SMILES,OD600
1,CC(C)(O/N=C(\C(=O)N[C@@H]1C(=O)N2C(C(=O)[O-])=C(C[n+]3ccccc3)CS[C@H]12)c1csc(N)n1)C(=O)O [Ceftazidime] + CCC(C)CCCC(=O)N[C@@H](CCN)C(=O)N[C@H](C(=O)N[C@@H](CCN)C(=O)N[C@H]1CCNC(=O)[C@H]([C@@H](C)O)NC(=O)[C@H](CCN)NC(=O)[C@H](CCN)NC(=O)[C@H](CC(C)C)NC(=O)[C@@H](CC(C)C)NC(=O)[C@H](CCN)NC1=O)[C@@H](C)O [colistin],inactive: 0.86
2,CCC[C@@H]1C[C@@H](C(=O)N[C@@H]([C@H]2O[C@H](SC)[C@H](O)[C@@H](O)[C@H]2O)[C@@H](C)O)N(C)C1 [Lincomycin hydrochloride] + CCC(C)CCCC(=O)N[C@@H](CCN)C(=O)N[C@H](C(=O)N[C@@H](CCN)C(=O)N[C@H]1CCNC(=O)[C@H]([C@@H](C)O)NC(=O)[C@H](CCN)NC(=O)[C@H](CCN)NC(=O)[C@H](CC(C)C)NC(=O)[C@@H](CC(C)C)NC(=O)[C@H](CCN)NC1=O)[C@@H](C)O [colistin],inactive: 0.996
3,CC#CCn1c(N2CCC[C@@H](N)C2)nc2c1c(=O)n(Cc1nc(C)c3ccccc3n1)c(=O)n2C [Linagliptin] + CCC(C)CCCC(=O)N[C@@H](CCN)C(=O)N[C@H](C(=O)N[C@@H](CCN)C(=O)N[C@H]1CCNC(=O)[C@H]([C@@H](C)O)NC(=O)[C@H](CCN)NC(=O)[C@H](CCN)NC(=O)[C@H](CC(C)C)NC(=O)[C@@H](CC(C)C)NC(=O)[C@H](CCN)NC1=O)[C@@H](C)O [colistin],inactive: 1.04
